# Assay results as given in the supplement of paper PMC7877785.
# ± gives the uncertainty stated by the source. The uncertainty is large for many entries.
# Experiment: self-splicing fitness, log relative to wild type (ln ratio); higher = more splicing; Tetrahymena group I intron in knt gene, E. coli kanamycin selection, DiMSum; sequences stand for … in CUCUCU…GGAGGGAAAAGUUAUCAGGCAUGCACCUGGUAGCUAGUCUUUAAACCAAUAGAUUGCAUCGGUUUAAAAGGCAAGACCGUCAAAUUGCGGGAAAGGGGUCAACAGCCGUUCAGUACCAAGUCUCAGGGGAAACUUUGAGAUGGCCUUGCAAAGGGUAUGGUAAUAAGCUGACGGACAUGGUCCUAACCACGCAGCCAAGUCCUAAGUCAACAGAUCUUCUGUUGAUAUGGAUGCAGUUCACAGACUAAAUGUCGGUCGGGGAAGAUGUAUUCUUCUCAUAAGAUAUAGUCGGACCUCUCCUUAAUGGGAGCUAGCGGAUGAAGUGAUGCAACACUGGAGCCGCUGGGAACUAAUUUGUAUGCGAAAGUAUAUUGAUUAGUUUUGGAGUACUCGUGGUCG
# Outline: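 The eight P1ex-region nucleotides of an intron in the knt kanamycin-resistance gene on pET-22b(+) were all randomised and the library put into E. coli BL21(DE3). Six replicate transformations were grown overnight at 37°C or 30°C on LB agar with or without 25 μg/mL kanamycin, together with 100 μg/mL carbenicillin, 50 μM IPTG and 0.2% rhamnose. Colonies were pooled and amplicon-sequenced on an Illumina HiSeq 2500. Fitness from DiMSum is the error-weighted combination of wild-type-normalised replicate fold changes, kanamycin over none.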
Sequence,self-splicing fitness (ln) (30 °C),self-splicing fitness (ln) (37 °C)
CUACAGCAAUAUUACGUAAG,-1.14 ± 0.068,-0.424 ± 0.092
CUCGAGCAAUAUUACGCUGU,-4.52 ± 0.72,–
GUGCAGCAAUAUUACGCCGC,-3.18 ± 0.74,-2.66 ± 0.62
AGUCAGCAAUAUUACGGAAC,-2.87 ± 0.15,-1.89 ± 0.15
GAAGAGCAAUAUUACGCGAU,-3.39 ± 0.63,–
GUGAAGCAAUAUUACGCCCA,-1.26 ± 0.65,0.521 ± 0.66
CUUCAGCAAUAUUACGACCA,-2.6 ± 0.55,-0.184 ± 0.74
UAAGAGCAAUAUUACGGUGC,-3.43 ± 0.28,–
AGAGAGCAAUAUUACGAAUA,-3.12 ± 0.61,–
GGUAAGCAAUAUUACGCAGA,-2.89 ± 0.62,–
UGGGAGCAAUAUUACGAAUC,-3.52 ± 1.1,-1.79 ± 0.69
AUGCAGCAAUAUUACGCCGC,–,-3.17 ± 0.6
GAAAAGCAAUAUUACGACAU,-0.184 ± 0.011,0.116 ± 0.032
UCAUAGCAAUAUUACGCAUA,-2.64 ± 0.51,–
CGUGAGCAAUAUUACGCGAG,–,-2.67 ± 1.1
UGUAAGCAAUAUUACGGUCC,-2.16 ± 0.14,-1.29 ± 0.14
CGUCAGCAAUAUUACGUAUA,-4.39 ± 0.51,–
CACUAGCAAUAUUACGAUCG,0.531 ± 0.067,0.717 ± 0.071
UCGUAGCAAUAUUACGAAUG,-2.01 ± 0.29,-1.76 ± 0.7
CCUGAGCAAUAUUACGCCAA,–,-4.62 ± 0.72
CUGCAGCAAUAUUACGUGCC,-2.23 ± 0.21,-2.26 ± 0.26
AGAGAGCAAUAUUACGUGCA,-3.36 ± 0.26,-2.34 ± 0.24

Sequence,self-splicing fitness (ln) (30 °C),self-splicing fitness (ln) (37 °C)
GCUGAGCAAUAUUACGCCGA,-2.63 ± 0.73,–
UUAUAGCAAUAUUACGCCGC,0.209 ± 1,–
GCUAAGCAAUAUUACGUACA,-1.38 ± 0.1,-0.974 ± 0.13
CUUGAGCAAUAUUACGACAA,-3.09 ± 0.68,–
GGUGAGCAAUAUUACGUUGC,–,-2.76 ± 0.61
AAUGAGCAAUAUUACGGUAC,–,-0.757 ± 0.63
GCGGAGCAAUAUUACGUCUA,-1.15 ± 0.76,-0.234 ± 1.4
AGACAGCAAUAUUACGGCGU,-0.937 ± 0.057,-0.314 ± 0.065
GGCGAGCAAUAUUACGUACC,–,-1.13 ± 0.52
CCCUAGCAAUAUUACGUUUA,-2.91 ± 0.14,-2.16 ± 0.16
UGGAAGCAAUAUUACGGCGC,-1.23 ± 0.22,-0.241 ± 0.22
GGGAAGCAAUAUUACGACCG,0.507 ± 0.5,1.01 ± 0.65
CAUGAGCAAUAUUACGUCGC,-3.59 ± 0.29,-2.13 ± 0.42
CCUGAGCAAUAUUACGGCUA,-1.85 ± 0.33,-1.27 ± 0.55
CCUUAGCAAUAUUACGAGAC,-5.39 ± 0.58,–
GUUGAGCAAUAUUACGCUUC,–,-1.33 ± 1.2
GUUGAGCAAUAUUACGCUCC,–,-0.234 ± 1.4
CUCUAGCAAUAUUACGCCGC,-2.42 ± 1.2,–
CACCAGCAAUAUUACGAUCC,–,-1.23 ± 0.6
ACCGAGCAAUAUUACGCCCC,-2.86 ± 0.64,-1.43 ± 0.61
UUAGAGCAAUAUUACGCGAC,–,-2.76 ± 0.61

# Pulled one by one from the list above:
Sequence,self-splicing fitness (ln) (30 °C),self-splicing fitness (ln) (37 °C)
AGAGAGCAAUAUUACGAAUA,-3.12 ± 0.61,–
GAAGAGCAAUAUUACGCGAU,-3.39 ± 0.63,–
